According to publication PMC11832932:
Numbering of substitutions follows the chain as printed. These are yes or no findings as the source states them, for the method shown. In cells and extracts the contact can be indirect. Some binding calls cover weakened binding; strength is not graded here. Tags and fused reporters may be left off the sequences shown.

Protein sequences, listed by entry. Tags and fused reporters are not part of them.
UniProt P11142: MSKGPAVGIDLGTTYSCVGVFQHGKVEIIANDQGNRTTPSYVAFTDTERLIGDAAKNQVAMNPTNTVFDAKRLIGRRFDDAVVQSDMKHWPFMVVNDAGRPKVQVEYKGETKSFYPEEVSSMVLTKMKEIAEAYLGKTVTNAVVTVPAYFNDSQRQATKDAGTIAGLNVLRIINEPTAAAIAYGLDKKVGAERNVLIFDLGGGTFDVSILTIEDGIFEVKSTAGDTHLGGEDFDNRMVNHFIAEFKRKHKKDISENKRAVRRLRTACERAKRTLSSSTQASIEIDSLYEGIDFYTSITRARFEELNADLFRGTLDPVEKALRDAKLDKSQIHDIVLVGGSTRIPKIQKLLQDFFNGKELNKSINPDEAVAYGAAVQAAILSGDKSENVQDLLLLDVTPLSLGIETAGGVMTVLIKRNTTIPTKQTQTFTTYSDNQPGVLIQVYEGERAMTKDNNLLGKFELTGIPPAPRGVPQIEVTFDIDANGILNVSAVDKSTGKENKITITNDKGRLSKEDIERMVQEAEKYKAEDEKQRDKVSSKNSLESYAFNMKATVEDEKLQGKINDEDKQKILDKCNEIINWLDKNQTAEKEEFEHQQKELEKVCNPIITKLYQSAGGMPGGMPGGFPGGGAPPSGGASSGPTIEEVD

How the values were obtained:
[1] = target: T1, Flag-PHGDH WT (human phosphoglycerate dehydrogenase) (human) (UniProt O43175); assay: co-IP; Flag-PHGDH WT or S371A immunoprecipitated from SK-Hep1 cells co-transfected with HA-HSC70; cells treated with 20 μM CQ and with or without 0.5 mM H2O2 for 12 h; LAMP2A and HA-HSC70 detected by immunoblotting
T1 sequence: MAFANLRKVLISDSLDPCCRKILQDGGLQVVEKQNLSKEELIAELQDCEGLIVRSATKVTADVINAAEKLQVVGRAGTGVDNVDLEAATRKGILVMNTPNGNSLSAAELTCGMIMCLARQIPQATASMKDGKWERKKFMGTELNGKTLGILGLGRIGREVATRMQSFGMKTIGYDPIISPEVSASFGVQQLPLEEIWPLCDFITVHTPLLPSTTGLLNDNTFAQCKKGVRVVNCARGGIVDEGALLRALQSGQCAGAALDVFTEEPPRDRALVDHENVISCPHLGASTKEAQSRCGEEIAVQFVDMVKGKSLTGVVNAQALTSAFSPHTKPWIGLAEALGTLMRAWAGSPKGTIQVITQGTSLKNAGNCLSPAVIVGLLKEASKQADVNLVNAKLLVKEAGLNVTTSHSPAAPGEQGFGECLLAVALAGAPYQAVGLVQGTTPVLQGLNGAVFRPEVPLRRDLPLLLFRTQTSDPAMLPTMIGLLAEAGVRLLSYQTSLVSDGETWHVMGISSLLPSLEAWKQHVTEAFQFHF

[2] = target: T2, Flag-PHGDH S371A (phospho-deficient mutant) (human) (UniProt O43175); assay: as above
T2 sequence: T1 sequence with S371A

[3] = target: T3, Flag-PHGDH S371D (phospho-mimic mutant) (human) (UniProt O43175); assay: co-IP; Flag-PHGDH WT or S371D immunoprecipitated from transiently transfected SK-Hep1 cells 36 h after transfection; endogenous LAMP2A and HSC70 detected by immunoblotting
T3 sequence: T1 sequence with S371D

[4] = target: T1, Flag-PHGDH WT (human phosphoglycerate dehydrogenase) (human); assay: co-IP; Flag-PHGDH immunoprecipitated from SK-Hep1 cells co-transfected with EV or Flag-PHGDH and HA-MAPK13

“HA-HSC70 (human heat shock cognate 71 kDa protein) (from UniProt P11142 1-646)” was tested, and the binding [1] was “binds” and the binding [2] was “no binding”.

With “heat shock cognate 71 kDa protein (HSC70), endogenous (from UniProt P11142 1-646)” the binding [3] was “binds”.

B1: HA-MAPK13 (human mitogen-activated protein kinase 13) (enzyme, UniProt O15264 1-365)
chain: MSLIRKKGFYKQDVNKTAWELPKTYVSPTHVGSGAYGSVCSAIDKRSGEKVAIKKLSRPFQSEIFAKRAYRELLLLKHMQHENVIGLLDVFTPASSLRNFYDFYLVMPFMQTDLQKIMGMEFSEEKIQYLVYQMLKGLKYIHSAGVVHRDLKPGNLAVNEDCELKILDFGLARHADAEMTGYVVTRWYRAPEVILSWMHYNQTVDIWSVGCIMAEMLTGKTLFKGKDYLDQLTQILKVTGVPGTEFVQKLNDKAAKSYIQSLPQTPRKDFTQLFPRASPQAADLLEKMLELDVDKRLTAAQALTHPFFEPFRDPEEETEAQQPFDDSLEHEKLTVDEWKQHIYKEIVNFSPIARKDSRRRSGMKL
For B1, the binding [4] was “binds”.
